# Laboratory results: the supplement of paper PMC12819154, “High-throughput peptide-centric local stability assay extends protein–ligand identification to membrane proteins, tissues and bacteria” (Nature Structural & Molecular Biology, 2025)
# By UniProt entry, the sequences of proteins in these tests, tags left out. Where a name states a change or a piece, a line headed by the entry shows the natural chain unless it says otherwise.
# UniProt Q15648, whole entry: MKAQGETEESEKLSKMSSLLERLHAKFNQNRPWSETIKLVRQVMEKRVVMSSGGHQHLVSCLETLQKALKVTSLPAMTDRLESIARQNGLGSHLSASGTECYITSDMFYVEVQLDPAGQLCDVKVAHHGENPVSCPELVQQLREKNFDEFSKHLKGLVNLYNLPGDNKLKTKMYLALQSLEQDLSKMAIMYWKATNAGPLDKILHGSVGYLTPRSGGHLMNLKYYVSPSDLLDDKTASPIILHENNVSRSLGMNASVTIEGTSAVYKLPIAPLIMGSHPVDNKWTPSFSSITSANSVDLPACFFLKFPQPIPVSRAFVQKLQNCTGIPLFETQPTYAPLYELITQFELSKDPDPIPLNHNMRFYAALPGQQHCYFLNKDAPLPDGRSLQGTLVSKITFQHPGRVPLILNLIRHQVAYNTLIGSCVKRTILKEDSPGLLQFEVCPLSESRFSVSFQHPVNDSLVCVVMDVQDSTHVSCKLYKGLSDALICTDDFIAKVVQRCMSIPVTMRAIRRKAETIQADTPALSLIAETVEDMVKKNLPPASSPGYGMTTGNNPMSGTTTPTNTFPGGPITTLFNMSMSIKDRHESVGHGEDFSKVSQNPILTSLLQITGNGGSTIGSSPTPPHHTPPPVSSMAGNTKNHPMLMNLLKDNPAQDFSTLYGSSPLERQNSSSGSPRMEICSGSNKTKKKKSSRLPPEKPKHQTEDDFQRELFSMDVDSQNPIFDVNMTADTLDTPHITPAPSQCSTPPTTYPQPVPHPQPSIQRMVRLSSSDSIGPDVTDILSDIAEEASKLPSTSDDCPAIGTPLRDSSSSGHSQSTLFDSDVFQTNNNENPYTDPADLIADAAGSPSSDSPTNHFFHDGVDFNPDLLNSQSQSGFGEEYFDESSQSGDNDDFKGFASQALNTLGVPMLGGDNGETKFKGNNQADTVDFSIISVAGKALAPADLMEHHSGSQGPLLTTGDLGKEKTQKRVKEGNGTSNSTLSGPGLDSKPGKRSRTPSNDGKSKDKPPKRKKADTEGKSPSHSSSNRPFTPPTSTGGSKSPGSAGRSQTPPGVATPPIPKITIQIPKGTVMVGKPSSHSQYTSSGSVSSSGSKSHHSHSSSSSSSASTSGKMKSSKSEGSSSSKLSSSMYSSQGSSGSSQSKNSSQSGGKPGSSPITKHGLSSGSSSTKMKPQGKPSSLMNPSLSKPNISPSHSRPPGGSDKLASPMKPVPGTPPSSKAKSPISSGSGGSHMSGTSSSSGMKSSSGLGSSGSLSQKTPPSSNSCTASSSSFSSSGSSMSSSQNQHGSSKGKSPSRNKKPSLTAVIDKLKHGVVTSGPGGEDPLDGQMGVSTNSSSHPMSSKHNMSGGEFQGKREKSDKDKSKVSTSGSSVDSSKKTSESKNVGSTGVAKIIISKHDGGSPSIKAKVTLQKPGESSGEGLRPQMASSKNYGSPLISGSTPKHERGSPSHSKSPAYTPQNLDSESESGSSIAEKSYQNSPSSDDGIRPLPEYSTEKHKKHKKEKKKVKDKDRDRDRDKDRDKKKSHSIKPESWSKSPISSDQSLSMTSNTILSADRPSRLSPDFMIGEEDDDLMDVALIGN
# UniProt Q15431: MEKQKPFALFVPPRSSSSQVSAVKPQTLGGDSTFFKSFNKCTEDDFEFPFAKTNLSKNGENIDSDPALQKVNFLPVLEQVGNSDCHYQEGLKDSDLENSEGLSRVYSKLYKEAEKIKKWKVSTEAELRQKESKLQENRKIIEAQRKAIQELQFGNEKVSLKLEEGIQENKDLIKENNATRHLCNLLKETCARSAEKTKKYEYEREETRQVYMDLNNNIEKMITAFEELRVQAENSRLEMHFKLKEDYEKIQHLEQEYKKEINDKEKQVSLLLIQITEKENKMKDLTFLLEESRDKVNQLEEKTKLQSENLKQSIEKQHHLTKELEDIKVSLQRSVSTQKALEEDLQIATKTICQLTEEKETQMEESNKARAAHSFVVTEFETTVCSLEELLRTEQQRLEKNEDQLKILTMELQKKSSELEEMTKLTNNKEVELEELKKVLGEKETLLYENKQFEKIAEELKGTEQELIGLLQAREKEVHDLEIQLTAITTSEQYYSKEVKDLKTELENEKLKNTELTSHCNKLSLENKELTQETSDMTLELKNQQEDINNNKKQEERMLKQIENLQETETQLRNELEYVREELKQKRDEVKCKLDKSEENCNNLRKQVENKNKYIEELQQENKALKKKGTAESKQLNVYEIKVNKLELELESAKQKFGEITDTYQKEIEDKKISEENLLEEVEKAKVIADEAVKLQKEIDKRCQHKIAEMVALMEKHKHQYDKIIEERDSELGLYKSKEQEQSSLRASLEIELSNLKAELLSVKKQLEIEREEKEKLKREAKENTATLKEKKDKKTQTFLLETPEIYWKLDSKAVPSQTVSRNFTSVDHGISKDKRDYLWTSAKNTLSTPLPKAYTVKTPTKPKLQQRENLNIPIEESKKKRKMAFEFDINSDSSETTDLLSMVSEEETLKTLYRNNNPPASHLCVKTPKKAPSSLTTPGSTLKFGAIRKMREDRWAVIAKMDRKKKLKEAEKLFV
# UniProt Q16181: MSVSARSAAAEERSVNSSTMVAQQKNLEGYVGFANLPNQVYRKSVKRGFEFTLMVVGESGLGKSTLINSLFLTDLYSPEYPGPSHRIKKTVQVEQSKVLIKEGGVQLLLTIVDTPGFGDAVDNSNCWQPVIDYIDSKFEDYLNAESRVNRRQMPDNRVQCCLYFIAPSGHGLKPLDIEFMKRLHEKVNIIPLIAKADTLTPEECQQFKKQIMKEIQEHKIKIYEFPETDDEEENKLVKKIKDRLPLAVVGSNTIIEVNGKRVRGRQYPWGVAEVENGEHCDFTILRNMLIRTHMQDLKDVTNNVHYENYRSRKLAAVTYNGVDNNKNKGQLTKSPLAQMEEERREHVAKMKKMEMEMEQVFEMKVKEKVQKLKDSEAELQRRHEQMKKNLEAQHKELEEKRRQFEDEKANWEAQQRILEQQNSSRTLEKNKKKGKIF
# UniProt Q49A26: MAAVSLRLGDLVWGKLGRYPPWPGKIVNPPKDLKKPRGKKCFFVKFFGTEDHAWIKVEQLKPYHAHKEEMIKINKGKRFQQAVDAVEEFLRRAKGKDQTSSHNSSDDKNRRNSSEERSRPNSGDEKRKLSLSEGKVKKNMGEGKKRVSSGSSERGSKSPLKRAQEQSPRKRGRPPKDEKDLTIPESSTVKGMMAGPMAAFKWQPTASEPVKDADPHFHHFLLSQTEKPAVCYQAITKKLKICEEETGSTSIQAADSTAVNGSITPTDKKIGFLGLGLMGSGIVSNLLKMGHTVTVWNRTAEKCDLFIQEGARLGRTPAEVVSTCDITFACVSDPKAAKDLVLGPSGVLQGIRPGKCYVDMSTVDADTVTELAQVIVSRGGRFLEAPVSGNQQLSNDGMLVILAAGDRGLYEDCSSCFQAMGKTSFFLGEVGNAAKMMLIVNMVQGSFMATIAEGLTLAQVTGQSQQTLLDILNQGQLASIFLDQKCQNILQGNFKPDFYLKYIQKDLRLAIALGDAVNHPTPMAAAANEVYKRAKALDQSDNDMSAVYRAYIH
# UniProt Q1KMD3: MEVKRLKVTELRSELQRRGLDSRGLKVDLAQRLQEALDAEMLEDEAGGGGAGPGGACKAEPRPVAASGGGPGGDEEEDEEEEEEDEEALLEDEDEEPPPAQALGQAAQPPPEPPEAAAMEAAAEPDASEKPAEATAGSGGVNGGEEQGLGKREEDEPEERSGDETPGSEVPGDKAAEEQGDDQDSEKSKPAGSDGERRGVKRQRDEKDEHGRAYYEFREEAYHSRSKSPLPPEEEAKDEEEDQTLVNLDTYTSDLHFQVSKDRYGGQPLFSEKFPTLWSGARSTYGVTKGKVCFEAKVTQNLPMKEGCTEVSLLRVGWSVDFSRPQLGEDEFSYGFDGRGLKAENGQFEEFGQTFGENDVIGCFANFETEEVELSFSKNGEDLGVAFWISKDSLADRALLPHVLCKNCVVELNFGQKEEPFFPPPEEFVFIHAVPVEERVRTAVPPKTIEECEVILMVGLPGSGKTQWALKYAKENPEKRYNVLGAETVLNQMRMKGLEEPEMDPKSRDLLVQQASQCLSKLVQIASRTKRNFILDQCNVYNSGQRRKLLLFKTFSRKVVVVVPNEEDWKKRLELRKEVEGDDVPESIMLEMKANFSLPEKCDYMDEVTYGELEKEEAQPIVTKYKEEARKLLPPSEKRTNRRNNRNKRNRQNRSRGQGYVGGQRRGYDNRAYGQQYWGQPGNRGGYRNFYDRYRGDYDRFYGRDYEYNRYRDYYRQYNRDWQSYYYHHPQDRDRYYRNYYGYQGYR
# UniProt Q32P28: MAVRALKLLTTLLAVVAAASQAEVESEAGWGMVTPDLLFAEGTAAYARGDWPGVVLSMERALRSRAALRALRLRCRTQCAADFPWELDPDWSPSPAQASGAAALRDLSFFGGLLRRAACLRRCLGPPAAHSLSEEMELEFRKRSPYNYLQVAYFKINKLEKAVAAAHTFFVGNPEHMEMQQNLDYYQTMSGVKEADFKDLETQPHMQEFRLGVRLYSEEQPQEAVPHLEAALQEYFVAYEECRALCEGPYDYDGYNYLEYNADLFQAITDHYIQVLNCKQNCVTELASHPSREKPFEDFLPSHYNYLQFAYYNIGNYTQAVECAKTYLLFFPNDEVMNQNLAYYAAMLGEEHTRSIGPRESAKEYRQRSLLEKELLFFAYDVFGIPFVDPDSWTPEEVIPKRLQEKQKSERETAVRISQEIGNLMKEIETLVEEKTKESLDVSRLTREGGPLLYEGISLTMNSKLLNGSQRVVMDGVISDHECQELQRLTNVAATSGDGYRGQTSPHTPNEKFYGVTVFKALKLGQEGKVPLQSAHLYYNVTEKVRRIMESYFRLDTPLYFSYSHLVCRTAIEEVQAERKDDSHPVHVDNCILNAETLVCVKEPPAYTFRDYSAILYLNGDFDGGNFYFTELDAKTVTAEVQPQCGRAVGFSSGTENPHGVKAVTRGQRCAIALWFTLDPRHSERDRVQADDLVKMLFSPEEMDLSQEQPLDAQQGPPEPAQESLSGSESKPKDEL
# The other results are listed elsewhere or left out. Most values lie at the level of the controls, where differences are scatter.
# Compound: CN[C@@H]1C[C@H]2O[C@@](C)([C@@H]1OC)n1c3ccccc3c3c4c(c5c6ccccc6n2c5c31)C(=O)NC4 [staurosporine]
# Assay: log2 fold change of tryptic peptide abundance, ligand vs vehicle (limited proteolysis) (log2 ratio); higher = more trypsin-susceptible (destabilized)
# Details: ligand concentration: 20 uM; sample: K562 cleared lysate; digestion: 4 min, 22 C (HT-PELSA RT4min, Orbitrap Astral)
row,Target,log2 fold change
1,"ATG2A (peptide sequence: RGQQPADLR, peptide start residue: 1840) (UniProt Q2TAZ0)",0.376
2,"MED1 (peptide sequence: HDGGSPSIK, peptide start residue: 1397) (UniProt Q15648)",-0.212
3,"UniProt Q15431 (peptide sequence: LQKEIDKR, peptide start residue: 695)",-0.0261
4,"UniProt Q16181 (peptide sequence: MEMEMEQVFEMK, peptide start residue: 353)",-0.804
5,"GLYR1 (peptide sequence: FQQAVDAVEEFLRR, peptide start residue: 79) (UniProt Q49A26)",-0.127
6,"HNRNPUL2 (peptide sequence: YGGQPLFSEK, peptide start residue: 264) (UniProt Q1KMD3)",0.265
7,"UniProt Q32P28 (peptide sequence: DLETQPHMQEFR, peptide start residue: 199)",0.302

# Shown with bars between the fields: entries from further up
row | Target | log2 fold change
1 | ATG2A (peptide sequence: RGQQPADLR, peptide start residue: 1840) (UniProt Q2TAZ0) | 0.376
3 | UniProt Q15431 (peptide sequence: LQKEIDKR, peptide start residue: 695) | -0.0261
